These are literature values, as cited in patent publication US9579299B2, “CNS pharmaceutical compositions and methods of use” (TARGIA PHARMACEUTICALS, priority 2008, dated 2017).

The conditions of this data set: CNS active agent; cited from earlier work.

Structures are written as SMILES.

The term Tmax denotes the time at which the peak concentration occurs. `CN1C(=O)CN=C(c2ccccc2)c2cc(Cl)ccc21` [Diazepam]: the Tmax is 30 to 90 min.
